Assay results reported in PubChem BioAssay AID540256 (National Center for Advancing Translational Sciences (NCATS), 2011).
Out of some 300,000 compounds screened, about 3,700 (1.2%) were called active. Inconclusive results, whose numbers are uncertain, are shown with a selection of clear calls. The call rests on the fitted dose curve; tested in HEK293 cells. Where the call is inconclusive, the potency comes from a doubtful curve fit.

Assay: qHTS for Inhibitors of binding or entry into cells for Lassa Virus; further: nearly all actives have a fitted effect of over 50% in size
Details: Lassa virus pseudotype entry inhibition, cell reporter; series mostly up to 37.9 µM
Potency means the concentration at half of the fitted maximal effect.

| Compound | Potency |
| --- | --- |
| COc1cccc(/C=C/C(=O)Nc2ccc3c(c2)OCCO3)c1OC | inconclusive: 2 µM [inhibitor, full curve, poor fit] |
| Cc1cccc(-c2c3c(=O)n(C)c(=O)n(C)c3cn2-c2cc(N)c(Cl)cc2Cl)c1 | inconclusive: 7.94 µM [inhibitor, partial curve, poor fit] |
| Cc1ccc(C(=O)N2CCN(c3ccc(C(F)(F)F)cn3)CC2)c(C)c1 | inconclusive: 0.708 µM [activator, single point] |
| COc1ccc(N(CC(=O)NC2CCCCC2)C(=O)c2snc(C(N)=O)c2N)cc1 | inconclusive: 35.5 µM [inhibitor, single point] |
| Cc1ccc(C(=O)CC(Nc2ccc(F)cc2)c2ccccc2)cc1 (configuration not stated) | inconclusive: 1 µM [inhibitor, single point] |
| Cc1c(C(=O)NCCSCc2ccccc2)cccc1[N+](=O)[O-] | inconclusive: 14.1 µM [inhibitor, partial curve, poor fit] |
| CCC1=Nc2cc(C(=O)NCCCN3CCOCC3)ccc2Sc2ccccc21 | inactive |
| O=C(O)c1cccc(NC(=O)c2cccc(S(=O)(=O)N3CCCCC3)c2)c1 | inconclusive: 14.6 µM [inhibitor, single point] |
| COC(=O)c1ccccc1NC(=O)CCC(=O)N1CCOc2ccccc21 | inactive |
| CCOC(=O)c1ccc(NC(=O)COc2ccc(CNC3CCCCC3)cc2OC)cc1 | inconclusive: 28.2 µM [inhibitor, single point] |
| COc1ccc(CC(=O)N/N=C(\C)CC(=O)Nc2cccc(F)c2)cc1 | inactive |
| COc1ccccc1Cn1ccn(Cc2c(F)cccc2Cl)c(=O)c1=O | inactive |
| CCc1[nH]c(=O)[nH]c1C(C)S(=O)(=O)c1ccc(C)cc1 (configuration not stated) | inconclusive: 5.62 µM [inhibitor, single point] |
| CN(Cc1ccccc1)Cc1cc(=O)oc2ccccc12 | inconclusive: 15.8 µM [activator, partial curve, poor fit] |
| CCCCn1c(NC(=S)Nc2ccccc2)nc2ccccc21 | inconclusive: 35.5 µM [inhibitor, single point] |
| Cc1oc(-c2cccc3ccccc23)nc1CN1CCN(c2ncnc3ccccc23)CC1 | inconclusive: 17.8 µM [inhibitor, partial curve, poor fit] |
| Cc1nc2nc(Cc3ccccc3)[nH]n2c(=O)c1Cc1ccccc1 | inconclusive: 35.5 µM [inhibitor, single point] |
| C/C(=N\NC(=O)NC1CCCCC1)c1ccc(Cl)s1 | inconclusive: 6.31 µM [inhibitor, single point] |
| CCC(=O)Nc1ccc(S(=O)(=O)NCc2ccc3c(c2)CCN3C(=O)c2ccc(C)cc2)cc1 | inconclusive: 7.08 µM [inhibitor, full curve, poor fit] |
| CCc1ccc(-c2cc(C(=O)Nc3c(C)n(C)n(-c4ccccc4)c3=O)c3ccccc3n2)s1 | inconclusive: 0.0046 µM [activator, full curve, poor fit] |
| COC(=O)c1ccc(NC(=O)CSc2ccccn2)cc1 | inconclusive: 25.9 µM [activator, single point] |

| Compound | Potency |
| --- | --- |
| CCOC(=O)c1c(C)n(Cc2ccccc2)c2ccc(O)cc12 | inconclusive: 2.82 µM [inhibitor, partial curve, poor fit] |
| COc1ccc(NC(C)C(=O)N/N=C/c2ccccc2OCc2cccc(Br)c2)cc1 (configuration not stated) | active: 11.2 µM |
| COc1ccc(C2=NN(c3ccc(C=O)cc3)C(c3ccccc3)C2)cc1 (configuration not stated) | inconclusive: 7.08 µM [inhibitor, partial curve, poor fit] |
| S=C(NCc1ccccn1)Nc1cccc(Cl)c1 | inactive |
| CC(=O)Nc1ccccc1C(=O)OCc1ccc(C(=O)c2ccccc2)cc1 | inconclusive: 25.9 µM [inhibitor, single point] |
| O=C(CSc1nnc(-c2cccnc2)s1)Nc1ccnc2ccccc12 | inconclusive: 1.26 µM [inhibitor, full curve] |
| OCCN(Cc1ccccc1)CC1CCCCC1 | inconclusive: 0.517 µM [activator, single point] |
| CC(C)C(=O)O/N=C(\N)c1ccc(Oc2ccc(Cl)cc2)c([N+](=O)[O-])c1 | inconclusive: 35.5 µM [inhibitor, partial curve, poor fit] |
| CCN(CC)S(=O)(=O)c1ccc(S(=O)(=O)N(CC(=O)Nc2ccccc2)CC2CCCO2)cc1 (configuration not stated) | inconclusive: 6.51 µM [inhibitor, partial curve] |
| CCC(=O)Nc1cccc(-c2nnc(-c3cccc(NC(=O)CC)c3)o2)c1 | inactive |
| Cc1nn(CC#N)c(=O)n1-c1ccccc1 | inconclusive: 1.26 µM [activator, single point] |
| O=C(CN1C(=O)NC2(CCCC2)C1=O)NCCN1C(=O)S/C(=C\c2ccccc2F)C1=O | inactive |
| CCN1CCN(c2ccc(S(=O)(=O)N3CCCCC3)cc2NC(=O)c2cccc(OC(F)F)c2)CC1 | inconclusive: 10 µM [inhibitor, partial curve, poor fit] |
| CC(C)(C)OC(=O)N1CCC(c2c(C(=O)NCc3cccs3)cnn2-c2ccc(F)cc2F)CC1 | inconclusive: 6.31 µM [inhibitor, full curve, poor fit] |
| S=C(NCc1cccnc1)NCc1cccnc1 | inconclusive: 35.5 µM [activator, partial curve, poor fit] |
| Clc1ccc(CN=C(Nc2ccccc2)NC2CCCCC2)cc1 | inconclusive: 35.5 µM [inhibitor, single point] |
| COc1ccc(CNCCC(c2ccccc2)c2ccc(OC(C)C)cc2)cc1OC (configuration not stated) | active: 6.31 µM |
| C/C(N)=C(/C#N)C(=O)CSc1nnnn1-c1ccc(C)cc1 | inactive |
| Cc1ccc(S(=O)(=O)N2CCC(C(=O)Nc3ccc(S(=O)(=O)N4CCOCC4)cc3)CC2)cc1 | inconclusive: 22.4 µM [inhibitor, partial curve, poor fit] |
| CCCNC(=O)CCC(=O)Nc1ncc(-c2ccc(C)cc2)n1C | inactive |
| CC1CCN(C(=O)c2cc3ccccc3o2)CC1 | inactive |

In the list so far, these have an NH in an aromatic ring:

| Compound | Potency |
| --- | --- |
| CCc1[nH]c(=O)[nH]c1C(C)S(=O)(=O)c1ccc(C)cc1 (configuration not stated) | inconclusive: 5.62 µM [inhibitor, single point] |
| Cc1nc2nc(Cc3ccccc3)[nH]n2c(=O)c1Cc1ccccc1 | inconclusive: 35.5 µM [inhibitor, single point] |
